Data source: PubChem BioAssay AID686938 (Drosophila RNAi Screening Center, 2013)

- Test: 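Looking for CRAC channel components and the factors controlling them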 (primary screen)
- Cells: Drosophila S2R+ cells
- Reagent: long dsRNA against Drosophila genes, about 0.25 µg dsRNA per well, roughly 10,000 cells
- Duration: 5 days of knock-down before the calcium assay
- Conditions: thapsigargin (SERCA pump blocker) to empty calcium stores; entry signal taken 4 min after adding it
- Read-out: 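Duplicate raw fluo-4 intensities per well from a plate reader, at rest and four minutes after thapsigargin emptied calcium stores; entry-to-rest ratio filled for only some wells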
- Direction: calcium entry signal: higher = stronger calcium signal after store depletion; entry to resting ratio: higher = more calcium entry relative to resting level; resting calcium signal: higher = higher resting calcium signal
- Rule for the call: 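Called when the plate z-score of the entry-to-rest ratio, mean of duplicates, falls below −3; wells with low overall dye signal (Fmax z below −2) or more than five off-targets excluded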
- Calls: active = strongly reduced calcium entry; inactive = no strong reduction
The screen tested about 23,000 reagents; this is a random part of those that have a named target and a result. In the full data, 75 (0.33%) are marked active. 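Raw plate signals without normalisation; calls rest on plate z-scores that were not deposited; ratio present for only 364 wells.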 Not stated in the record: the dose of the treatment.

predicted target	DRSC id	calcium entry signal, replicate 1 (fluorescence units)	calcium entry signal, replicate 2 (fluorescence units)	entry to resting ratio	resting calcium signal, replicate 1 (fluorescence units)	resting calcium signal, replicate 2 (fluorescence units)	call
l(2)gl (lethal (2) giant larvae)	DRSC00825	3.75e7	2.58e7		1.93e7	1.33e7	inactive
eco (Establishment of cohesion)	DRSC11006	3.90e7	2.97e7		3.06e7	1.50e7	inactive
Acp62F (Accessory gland protein 62F)	DRSC08136	4.20e7	4.05e7		2.08e7	1.83e7	inactive
PIG-S (Phosphatidylinositol glycan anchor biosynthesis class S)	DRSC14643	5.68e7	4.24e7		2.47e7	1.86e7	inactive
PIG-S (Phosphatidylinositol glycan anchor biosynthesis class S)	DRSC15388	3.75e7	4.50e7		1.77e7	1.96e7	inactive
PIG-S (Phosphatidylinositol glycan anchor biosynthesis class S)	DRSC15952	4.69e7	4.59e7		2.11e7	1.89e7	inactive
CG3520	DRSC04383	3.46e7	4.76e7		1.86e7	2.14e7	inactive
TotX (Turandot X)	DRSC22206	3.34e7	5.24e7		1.71e7	2.69e7	inactive
CG14676	DRSC12262	4.53e7	3.84e7		2.29e7	1.84e7	inactive
CG5953	DRSC01546	1.79e7	3.30e7		1.15e7	1.55e7	inactive
CG5953	DRSC02914	4.92e7	3.60e7		2.32e7	1.92e7	inactive
CG6610	DRSC10674	2.28e7	4.17e7		1.11e7	1.69e7	inactive
CG17147	DRSC10249	1.74e7	3.16e7		1.00e7	1.47e7	inactive
CG42812	DRSC15368	3.68e7	5.23e7		2.07e7	2.19e7	inactive
unk (unkempt)	DRSC17093	3.97e7	3.56e7		1.95e7	1.61e7	inactive
Kr (Kruppel)	DRSC04622	3.54e7	2.78e7		1.87e7	1.29e7	inactive
zetaTry (zetaTrypsin)	DRSC07720	2.77e7	4.16e7		1.50e7	1.74e7	inactive
GABA-B-R3 (metabotropic GABA-B receptor subtype 3)	DRSC00561	2.71e7	2.67e7		1.40e7	1.27e7	inactive
fus (fusilli)	DRSC05569	4.74e7	4.99e7		2.60e7	2.04e7	inactive
fus (fusilli)	DRSC07107	3.27e7	2.66e7		1.36e7	1.26e7	inactive
tadr (torn and diminished rhabdomeres)	DRSC03177	3.32e7			1.57e7		inactive
CG13010	DRSC19529	2.60e7	3.17e7		1.42e7	1.44e7	inactive

Laid out differently: entries from further up.
GABA-B-R3 (metabotropic GABA-B receptor subtype 3) [DRSC00561] — calcium entry signal, replicate 1 (fluorescence units) = 2.71e7; calcium entry signal, replicate 2 (fluorescence units) = 2.67e7; resting calcium signal, replicate 1 (fluorescence units) = 1.40e7; resting calcium signal, replicate 2 (fluorescence units) = 1.27e7; call = inactive
fus (fusilli) [DRSC05569] — calcium entry signal, replicate 1 (fluorescence units) = 4.74e7; calcium entry signal, replicate 2 (fluorescence units) = 4.99e7; resting calcium signal, replicate 1 (fluorescence units) = 2.60e7; resting calcium signal, replicate 2 (fluorescence units) = 2.04e7; call = inactive
fus (fusilli) [DRSC07107] — calcium entry signal, replicate 1 (fluorescence units) = 3.27e7; calcium entry signal, replicate 2 (fluorescence units) = 2.66e7; resting calcium signal, replicate 1 (fluorescence units) = 1.36e7; resting calcium signal, replicate 2 (fluorescence units) = 1.26e7; call = inactive
tadr (torn and diminished rhabdomeres) [DRSC03177] — calcium entry signal, replicate 1 (fluorescence units) = 3.32e7; resting calcium signal, replicate 1 (fluorescence units) = 1.57e7; call = inactive
CG13010 [DRSC19529] — calcium entry signal, replicate 1 (fluorescence units) = 2.60e7; calcium entry signal, replicate 2 (fluorescence units) = 3.17e7; resting calcium signal, replicate 1 (fluorescence units) = 1.42e7; resting calcium signal, replicate 2 (fluorescence units) = 1.44e7; call = inactive

More entries follow.
predicted target	DRSC id	calcium entry signal, replicate 1 (fluorescence units)	calcium entry signal, replicate 2 (fluorescence units)	entry to resting ratio	resting calcium signal, replicate 1 (fluorescence units)	resting calcium signal, replicate 2 (fluorescence units)	call
CG33223	DRSC17572	3.75e7	3.10e7		2.00e7	1.64e7	inactive
Uxs (UDP-xylose synthase)	DRSC10941	4.53e7	4.29e7		2.90e7	1.81e7	inactive
Amun	DRSC19847	3.69e7	4.38e7		2.12e7	2.38e7	inactive
CG5645	DRSC10532	3.60e7	3.67e7		2.71e7	1.48e7	inactive
Pgcl (Pepsinogen C-like)	DRSC18815	3.95e7	3.96e7	2.3	1.74e7	1.57e7	inactive
Rassf (Ras association family member)	DRSC15612	4.37e7	3.82e7		2.00e7	1.84e7	inactive
CG15529	DRSC15066	3.74e7	4.52e7		1.93e7	1.97e7	inactive
CG5892	DRSC15910	2.90e7	3.62e7		4.08e7	1.58e7	inactive
CG43098	DRSC08051	4.54e7	3.55e7		2.13e7	1.66e7	inactive
fred (friend of echinoid)	DRSC00349	4.07e7	3.96e7		2.03e7	1.83e7	inactive
fred (friend of echinoid)	DRSC00599	3.61e7	4.71e7		1.70e7	2.26e7	inactive
fred (friend of echinoid)	DRSC00601	4.07e7	4.31e7		1.96e7	2.03e7	inactive
fred (friend of echinoid)	DRSC00602	4.08e7	4.25e7		2.02e7	1.96e7	inactive
fred (friend of echinoid)	DRSC21906	3.49e7	4.02e7		1.66e7	1.87e7	inactive
CG6231	DRSC15997	3.89e7	4.90e7		6.42e7	2.09e7	inactive
CG17807	DRSC04296	3.80e7			1.80e7		inactive
CG7741	DRSC07035	3.11e7	2.47e7		1.61e7	1.06e7	inactive
CG7557	DRSC10878	4.78e7	3.08e7		2.92e7	1.36e7	inactive
CG14100	DRSC10101	2.67e7	5.08e7		1.38e7	2.33e7	inactive
CG13575	DRSC04211	3.48e7	4.83e7		1.83e7	2.18e7	inactive
CG13575	DRSC22851	2.04e7	2.94e7		1.11e7	1.45e7	inactive
CG17224	DRSC00489	2.05e7	2.18e7		1.10e7	1.04e7	inactive
otk2 (off-track2)	DRSC07303	3.46e7	3.54e7		1.78e7	1.61e7	inactive
CG34038	DRSC04039	2.86e7	4.82e7		1.49e7	2.02e7	inactive
Pkg21D (Protein kinase, cGMP-dependent at 21D)	DRSC00772	4.52e7			2.16e7		inactive
ssp2 (short spindle 2)	DRSC11052	2.96e7	3.76e7		1.42e7	2.56e7	inactive
tous (testes of unusual size)	DRSC04464	3.65e7			1.83e7		inactive
Ubc2 (Ubiquitin conjugating enzyme 2)	DRSC01137	4.79e7	5.59e7		2.29e7	2.44e7	inactive
Ubc2 (Ubiquitin conjugating enzyme 2)	DRSC03468	3.26e7	4.92e7		1.59e7	2.05e7	inactive
CG18420	DRSC01954	3.31e7	2.17e7		1.58e7	9.93e6	inactive
CG8064	DRSC16373	2.87e7	2.84e7		1.43e7	1.42e7	inactive
ND-18 (NADH dehydrogenase (ubiquinone) 18 kDa subunit)	DRSC19441	4.80e7	4.43e7		2.45e7	1.96e7	inactive
Usp8 (Ubiquitin specific protease 8)	DRSC15876	5.72e7	4.13e7		2.81e7	1.88e7	inactive
CG14692	DRSC14915	3.01e7	3.11e7		1.46e7	1.70e7	inactive
AttA (Attacin-A)	DRSC05926	4.94e7	4.33e7		1.83e7	1.97e7	inactive
Nup358 (Nucleoporin 358kD)	DRSC14410	3.85e7	2.87e7		1.87e7	1.43e7	inactive
